For this experiment, the target named is GRP20-YFP fusion protein expressed in plants (Arabidopsis thaliana) (UniProt Q9LY07). Put plainly: affinity purification with mass spectrometry; immunoprecipitation-mass spectrometry with a GRP20-YFP protein expressed in plants.

Results are given in words; binding and its absence hold for the method and conditions named. In cells and extracts the contact can be indirect. Here binding means that the protein was enriched with, or labelled near, the bait; the list need not be complete.

B1: CLO (spliceosome U5 component found by IP-MS) (protein, UniProt Q9LNC5 1-987)
chain: MESSLYDEFGNYVGPEIESDRDSDDEVEDEDLQDKHLEENGSDGEQGPGGSNGWITTINDVEMENQIVLPEDKKYYPTAEEVYGEDVETLVMDEDEQPLEQPIIKPVRDIRFEVGVKDQATYVSTQFLIGLMSNPALVRNVALVGHLQHGKTVFMDMLVEQTHHMSTFNAKNEKHMKYTDTRVDEQERNISIKAVPMSLVLEDSRSKSYLCNIMDTPGHVNFSDEMTASLRLADGAVLIVDAAEGVMVNTERAIRHAIQDHLPIVVVINKVDRLITELKLPPRDAYYKLRHTIEVINNHISAASTTAGDLPLIDPAAGNVCFASGTAGWSFTLQSFAKMYAKLHGVAMDVDKFASRLWGDVYYHSDTRVFKRSPPVGGGERAFVQFILEPLYKIYSQVIGEHKKSVETTLAELGVTLSNSAYKLNVRPLLRLACSSVFGSASGFTDMLVKHIPSPREAAARKVDHSYTGTKDSPIYESMVECDPSGPLMVNVTKLYPKSDTSVFDVFGRVYSGRLQTGQSVRVLGEGYSPEDEEDMTIKEVTKLWIYQARYRIPVSSAPPGSWVLIEGVDASIMKTATLCNASYDEDVYIFRALQFNTLPVVKTATEPLNPSELPKMVEGLRKISKSYPLAITKVEESGEHTILGTGELYLDSIMKDLRELYSEVEVKVADPVVSFCETVVESSSMKCFAETPNKKNKITMIAEPLDRGLAEDIENGVVSIDWNRKQLGDFFRTKYDWDLLAARSIWAFGPDKQGPNILLDDTLPTEVDRNLMMAVKDSIVQGFQWGAREGPLCDEPIRNVKFKIVDARIAPEPLHRGSGQMIPTARRVAYSAFLMATPRLMEPVYYVEIQTPIDCVTAIYTVLSRRRGHVTSDVPQPGTPAYIVKAFLPVIESFGFETDLRYHTQGQAFCLSVFDHWAIVPGDPLDKAIQLRPLEPAPIQHLAREFMVKTRRRKGMSEDVSGNKFFDEAMMVELAQQTGDLHLQMI
For B1, the binding result was “binds”.

(Values after paper PMC10808074, “Regulation of micro- and small-exon retention and other splicing processes by GRP20 for flower development”.)
